No constants are given. Whether binding was seen depends on the method and setting. Tags and fused reporters may be left off the sequences shown.
Target: T1, Mycobacterium tuberculosis SecA2(S802C) labeled with Cy5 (Mycobacterium tuberculosis strain H37Rv) (UniProt P9WGP3)
T1 sequence (chain, Cy5 (Cy5-maleimide label)): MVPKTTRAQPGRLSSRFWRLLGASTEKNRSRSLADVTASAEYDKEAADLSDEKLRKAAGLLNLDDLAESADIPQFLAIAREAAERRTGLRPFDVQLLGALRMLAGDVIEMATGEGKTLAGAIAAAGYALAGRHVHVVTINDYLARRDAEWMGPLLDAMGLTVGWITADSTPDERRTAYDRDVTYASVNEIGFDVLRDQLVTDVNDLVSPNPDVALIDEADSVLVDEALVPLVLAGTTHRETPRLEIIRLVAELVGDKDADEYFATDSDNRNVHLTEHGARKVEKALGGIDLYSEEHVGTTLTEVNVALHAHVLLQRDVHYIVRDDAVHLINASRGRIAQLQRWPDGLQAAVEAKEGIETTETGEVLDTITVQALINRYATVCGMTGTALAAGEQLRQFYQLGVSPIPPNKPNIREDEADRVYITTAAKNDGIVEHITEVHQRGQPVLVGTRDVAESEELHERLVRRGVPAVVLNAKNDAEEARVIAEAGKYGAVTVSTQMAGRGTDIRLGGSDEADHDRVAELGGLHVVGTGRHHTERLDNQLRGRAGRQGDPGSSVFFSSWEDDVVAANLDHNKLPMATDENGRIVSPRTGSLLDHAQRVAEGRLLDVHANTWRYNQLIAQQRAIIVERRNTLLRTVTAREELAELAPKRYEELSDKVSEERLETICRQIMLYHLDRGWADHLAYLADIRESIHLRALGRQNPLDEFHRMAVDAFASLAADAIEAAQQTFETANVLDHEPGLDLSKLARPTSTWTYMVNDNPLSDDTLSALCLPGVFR
Assay: MST; Monolith NT.115; unlabeled protein (1 nM to 5 μM) titrated into 25 nM Cy5-labeled protein, mixed in 300 mM KCl, then diluted into low salt buffer (25 mM HEPES-KOH pH 7.5, 30 mM KCl, 2 mM MgCl2, 50 mM arginine); Hill fit, apparent Kd; dimer to monomers; both purified

Escherichia coli SecA (unlabeled) (from UniProt P10408 1-901)
binding: no binding (tested: 1 nM to 5 μM (methods))

Source: publication PMC4457860, “In Vitro Interaction of the Housekeeping SecA1 with the Accessory SecA2 Protein of Mycobacterium tuberculosis” (PLoS ONE, 2015)
